Assay results: PMC3877758 (2013)
No constants are given. Whether binding was seen depends on the method and setting. Some binding calls cover weakened binding; strength is not graded here. For some assays here: Where a sequence is shown, tags or fusion partners need not be part of it. Values belong to the molecule of their own block, whether it stands above or below them.

Amino acid sequences for entries named in this document (tags omitted). A change or cut given only in a name is not applied to a line headed by its entry.
UniProt P38431: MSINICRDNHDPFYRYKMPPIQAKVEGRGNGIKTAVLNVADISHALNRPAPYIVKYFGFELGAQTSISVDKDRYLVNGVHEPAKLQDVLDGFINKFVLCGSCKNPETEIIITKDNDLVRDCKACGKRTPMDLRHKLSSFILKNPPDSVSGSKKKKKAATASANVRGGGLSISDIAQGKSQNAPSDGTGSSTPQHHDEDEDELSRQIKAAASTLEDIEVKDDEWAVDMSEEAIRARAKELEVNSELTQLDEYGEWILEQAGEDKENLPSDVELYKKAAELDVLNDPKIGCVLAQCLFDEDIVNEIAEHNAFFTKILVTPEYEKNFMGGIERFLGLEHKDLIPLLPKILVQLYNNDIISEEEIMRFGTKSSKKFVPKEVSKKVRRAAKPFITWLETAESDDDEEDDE
UniProt P14741: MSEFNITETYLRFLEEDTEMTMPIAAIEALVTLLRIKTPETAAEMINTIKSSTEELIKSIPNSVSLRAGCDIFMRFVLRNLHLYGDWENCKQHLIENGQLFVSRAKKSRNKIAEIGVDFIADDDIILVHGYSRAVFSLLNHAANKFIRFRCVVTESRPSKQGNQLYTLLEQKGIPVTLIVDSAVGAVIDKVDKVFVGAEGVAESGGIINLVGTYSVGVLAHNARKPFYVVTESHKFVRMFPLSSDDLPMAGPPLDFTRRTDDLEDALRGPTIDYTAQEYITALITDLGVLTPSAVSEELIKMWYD

Tests used:
[1] = target: GST-eIF5 (yeast (Saccharomyces cerevisiae)) (UniProt P38431); assay: pull-down; GDF assay (competition): 1 µg eIF2 or eIF2αP and 1 µg GST-eIF5 bound to glutathione sepharose beads 2 h at 4°C, washed, then challenged 2 h at 4°C with increasing concentrations of Flag-eIF2B complexes, subunits or eIF5-Flag; 30 mM HEPES, 100 mM KCl, 100 µM GDP, 5 mM DTT, 1 mM NaF, 2.5 mM MgCl2, 0.05% Triton X-100; bound eIF2 by immunoblot; fit y = 1 − [x/(x + IC50)]; both purified
[2] = target: T1, eIF2Bγ (GCD1-Flag2-His6), co-overexpressed with other eIF2B subunits (yeast (Saccharomyces cerevisiae)) (UniProt P09032); assay: Flag affinity co-purification; eIF2B subunits co-overexpressed in yeast from high-copy plasmids; bound to Flag M2 affinity resin and eluted with 3xFlag peptide; subunit composition of the eluate
T1 sequence: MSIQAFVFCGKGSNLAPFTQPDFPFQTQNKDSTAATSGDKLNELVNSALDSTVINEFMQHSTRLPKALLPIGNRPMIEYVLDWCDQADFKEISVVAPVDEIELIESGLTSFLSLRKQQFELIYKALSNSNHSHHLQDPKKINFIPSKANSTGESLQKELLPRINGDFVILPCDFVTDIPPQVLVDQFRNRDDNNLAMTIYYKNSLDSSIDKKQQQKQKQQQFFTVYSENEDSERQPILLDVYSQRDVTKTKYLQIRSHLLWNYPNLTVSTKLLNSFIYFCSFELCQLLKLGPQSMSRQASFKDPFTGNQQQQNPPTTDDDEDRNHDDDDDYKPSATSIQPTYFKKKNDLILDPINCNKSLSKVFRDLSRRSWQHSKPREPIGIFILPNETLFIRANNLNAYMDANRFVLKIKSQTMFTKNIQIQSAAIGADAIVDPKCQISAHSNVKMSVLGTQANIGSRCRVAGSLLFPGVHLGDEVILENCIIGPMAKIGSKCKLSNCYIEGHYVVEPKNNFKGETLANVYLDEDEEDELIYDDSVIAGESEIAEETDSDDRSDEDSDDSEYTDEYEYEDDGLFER

binding [1]: no binding
Molecule: eIF2B complex (five subunits α, β, γ, δ, ɛ) (from UniProt P14741 1-305; P32502 1-381; P09032 1-578; P12754 1-651; P32501 1-712)

binding [2]: binds
B1: eIF2Bɛ (GCD6), co-overexpressed with eIF2Bγ (protein, UniProt P32501 1-712)
chain: MAGKKGQKKSGLGNHGKNSDMDVEDRLQAVVLTDSYETRFMPLTAVKPRCLLPLANVPLIEYTLEFLAKAGVHEVFLICSSHANQINDYIENSKWNLPWSPFKITTIMSPEARCTGDVMRDLDNRGIITGDFILVSGDVLTNIDFSKMLEFHKKMHLQDKDHISTMCLSKASTYPKTRTIEPAAFVLDKSTSRCIYYQDLPLPSSREKTSIQIDPELLDNVDEFVIRNDLIDCRIDICTSHVPLIFQENFDYQSLRTDFVKGVISSDILGKHIYAYLTDEYAVRVESWQTYDTISQDFLGRWCYPLVLDSNIQDDQTYSYESRHIYKEKDVVLAQSCKIGKCTAIGSGTKIGEGTKIENSVIGRNCQIGENIRIKNSFIWDDCIIGNNSIIDHSLIASNATLGSNVRLNDGCIIGFNVKIDDNMDLDRNTKISASPLKNAGSRMYDNESNEQFDQDLDDQTLAVSIVGDKGVGYIYESEVSDDEDSSTEACKEINTLSNQLDELYLSDDSISSATKKTKKRRTMSVNSIYTDREEIDSEFEDEDFEKEGIATVERAMENNHDLDTALLELNTLRMSMNVTYHEVRIATITALLRRVYHFIATQTLGPKDAVVKVFNQWGLLFKRQAFDEEEYIDLMNIIMEKIVEQSFDKPDLILFSALVSLYDNDIIEEDVIYKWWDNVSTDPRYDEVKKLTVKWVEWLQNADEESSSEEE
